These are yes or no findings as the source states them, for the method shown. In cells and extracts the contact can be indirect. These calls come from enrichment with a bait or labelling near it, and not all partners need be listed.

By UniProt entry, the sequences of proteins in these tests, tags left out. Where a name states a change or a piece, a line headed by the entry shows the natural chain unless it says otherwise.
UniProt Q9UTQ4: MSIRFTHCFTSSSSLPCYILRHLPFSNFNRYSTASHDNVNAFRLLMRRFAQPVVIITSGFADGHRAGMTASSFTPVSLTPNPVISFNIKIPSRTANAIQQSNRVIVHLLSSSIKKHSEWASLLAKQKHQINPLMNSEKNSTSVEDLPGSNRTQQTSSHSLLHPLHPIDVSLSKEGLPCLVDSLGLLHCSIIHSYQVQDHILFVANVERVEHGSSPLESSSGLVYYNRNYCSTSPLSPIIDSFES

Our source for the binding values is paper PMC10279924.

The chains are these.
B1: Isa1 (protein, UniProt P78859 1-190)
chain: MLSCLSKPALRCRSVNRLQFLRKLSLQEIQTLKTQHQYLGRTRLDVETPSLKPSAAGSGSTAPKPVTEREIASTRFMPRKNVIKLTPLAVEHLKKMQSSASMKGKMLRIGVKQKGCAGQAYSLEYIEKPDKFDEIVKQDGISIIVARRALLQIIGSVMDYRDDDLQSRFIFSNPNVKSTCGCGESFSTLK
B2: Coq6 (enzyme, UniProt Q9Y7Z9 1-479)
chain: MSSLVLRGVSRVEMPTISPTLGIYTRKFASQKILQRQFDVVIVGSGPVGLALAAGLQSNPVTQSLKVGLLDIQDTMKLKDWKFETYSNRCSSLTNHTRMFFDKIGAWDFARKDRIQPFQHILASDGLTNSSIHLDQKPGSEPMAFMSENVNLQYALLNSIIDKMNNNIKKPNLEFLMPCTITKLSKGENIYRTHIHTTTHGELTTKLLIGADGRNSIVRKYANISMPGWNYLTHAVVGTLKIDPLKGPAVAFQRFLPTGPLAYLPLPDNNATFVWSTRPHIASKLLRLPEETFVKFLNASFRLDYPDLSYLYQMDFSEPSKVNEQLDWRLQVKRNSNMQVPPVITEIVSGSRAAFPLRLAHVDEYVKEGIALCGDAAHNTHPLAGQGLNTGIQDVESLISALSFAIKHGQDIGSVFSLQPYFRDRYFKNHVYLGVVDKFHKLYAMENPVVTSVRTLGLSLFDRSASLKNFILSTVANGI
B3: Isa2 (protein, UniProt O43045 1-205)
chain: MLMKSRVNLLFKGPFFFRERCFQTLLNPVIAIRQLSHGSLRNSRSCRIDAKSNTLTKEIFPKINNEFKIKNRFYSSKLANDQFTLQEQCDEKGIPFILYVKDSAKKQLEKIAERKPEENSVLRVTVDGGGCHGYQVSFRMDNKIGNADTVFVRGKARVVADNISLPLISGSEIEYTNELIGSSFQLLNNPRAKTSCGCNVSFDVE
B4: Coq7 (enzyme, UniProt O74826 28-216)
chain: ISMGRKELSEKDSNILDSVIRVDQAGELGANQIYKGQHFILQFTDPKVAPTIQHMWDQEKYHLATFDNYVLKNRVRPTFLRPFWDIAGFALGAGTALLGTKAAMACTEAVETVIGGHYNDQLRETAHLENKAPEFKEIRSHLAEFRDDELEHLNTAVEGWNAKEAPAHALLTNAIQMGCKAAIWMCKRF
B5: Coq5 (enzyme, UniProt P87230 35-305)
chain: TSTSSKDTDTSSHMTHFGFKDVPEDEKEHLVKNVFSSVAKKYDEMNDAMSLGIHRLWKNIFVSRLNPGNSTVPMKILDVAGGTGDIAFRILNHATNHNGDRNTRVIVADINPDMLSVGLRRSKKTPYYDSGRVEFIEQNAEILDKIPDNSIDMYTIAFGIRNCTHIPKVLEQAYRVLKPGGVFSCLEFSKVYPAPLAELYRQYSFKILPLLGTIIAGDSQSYEYLVESIERFPDAKTFAKMIEDAGFTLAGETGYETLSFGIAAIHTGIKL
B6: Coq3 (enzyme, UniProt O74421 31-274)
chain: HSVSVNEVDHFNELAKTWWDWDGGSRLLHLMNSTRLDFMTEVFRERNCFSGKKILDIGCGGGILSESMARLGASVTAVDASPMAIEVAKKHASLDPVLNGRLEYIHGSVEGSQLPTTFDVVTCMEVLEHVEQPRDFLFSLMEKVKPNGRLVLSTISRTLLARLLTITLAEHVLRIVPVGTHTFEKFIRADELSNFLKEQNWIINDIRGVCYNPLKQQWTLDKPGSSGLGLSCNYFLSAQKPMSA
B7: Coq11 (protein, UniProt O74482 1-276)
chain: MKIVVLGGSGFLGHNICKLAIAKGYEVVSVSRRGAGGLHNKEPWMDDVEWETLDAQKDPNSLLPVLRDASAVVNSVGILMENNYKKILQNPRGPVSHLINSLSSNMFKTGQNPLAPKPEEAKQSKNKVTFEAINRDLAIETAKIAAKANVPVYCYVSAHAAAPGLDPRYIKTKREAEREISKISNLRSIFLRPGFMYNFNDRPFTGALASLFTVSSSINRATSGALNFLGTASAEPLPSEEVALAALEAISDPSVKGPVEISELKSMAHKFKQKSL
B8: Coq4 (protein, UniProt O94453 1-272)
chain: MFYLNAHLEINKVVDVVMSLSKKFLKPSVASNQLRLLFTAAERKVNYPGHVPLSPLQRIFLVAGSAIMGLKAPWRGGDMISVLGDASGQPFFLHRLLNKMLVDKTGREILKDKPRMTSKSLNLPFLRTLPPNTLGKIYVDWIDKEHVGPDTRSPTRFVDDPEEAYVMQRYRESHDFYHAICNMPTNIEGELAIKWLEFVNMGLPVGALSALFGPLRLNCEQASRFRRVYIPWSIRNGLNAKTLINVYWEKELTNDIEDVRRRIRIEAAPPLV

The target in the first assay is Coq12-8xHis (S. pombe) (UniProt Q9UTQ4). Nature of the assay: affinity purification with mass spectrometry; Coq12-8xHis purified with Ni-NTA agarose from the soluble fraction of S. pombe whole cells, eluted with 300 mM imidazole, 50 mM sodium phosphate, 500 mM ammonium sulfate pH 7.4; nanoLC-MS/MS, label-free quantitation against an empty-vector control.
On to B1, for which the binding entry is reported as “binds”. Regarding B2, the binding result is reported as “binds”. Still for that read-out and setting: the entry for B3 is “binds”; for B4 it is “binds”. Same read-out and setting: the entry for B5 is “binds”.

Another assay shares this target. Put plainly: affinity purification with mass spectrometry; Coq12-8xHis purified with Ni-NTA agarose from the soluble fraction of S. pombe mitochondria, eluted with 300 mM imidazole, 50 mM sodium phosphate, 500 mM ammonium sulfate pH 7.4; nanoLC-MS/MS, label-free quantitation against an empty-vector control.
Consider B1, for which the binding entry was “binds”.

For the molecule B2, the binding entry is on record as “binds”.

Turning to B6, the binding entry is “binds”. On the same count and under the same terms, for B7 the value was “binds”; for B3, “binds”. In the case of B4, the binding result was “binds”. With B5, the binding entry is reported as “binds”. Still for that read-out and setting: the entry for B8 is “binds”.
